From the supplement of paper PMC10849652
Some of the results follow.

By UniProt entry, the sequences of proteins in these tests, tags left out. Where a name states a change or a piece, a line headed by the entry shows the natural chain unless it says otherwise.
UniProt Q86WC4: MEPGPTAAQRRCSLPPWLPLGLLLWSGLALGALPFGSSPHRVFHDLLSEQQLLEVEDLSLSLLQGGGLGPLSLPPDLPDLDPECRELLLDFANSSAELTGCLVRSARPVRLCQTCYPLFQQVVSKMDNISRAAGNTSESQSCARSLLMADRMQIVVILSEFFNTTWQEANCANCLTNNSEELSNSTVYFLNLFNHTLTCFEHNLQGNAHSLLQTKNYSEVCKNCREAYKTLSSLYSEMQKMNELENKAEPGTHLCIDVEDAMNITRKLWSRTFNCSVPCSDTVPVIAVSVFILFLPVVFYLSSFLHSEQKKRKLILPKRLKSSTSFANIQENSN
UniProt Q99571: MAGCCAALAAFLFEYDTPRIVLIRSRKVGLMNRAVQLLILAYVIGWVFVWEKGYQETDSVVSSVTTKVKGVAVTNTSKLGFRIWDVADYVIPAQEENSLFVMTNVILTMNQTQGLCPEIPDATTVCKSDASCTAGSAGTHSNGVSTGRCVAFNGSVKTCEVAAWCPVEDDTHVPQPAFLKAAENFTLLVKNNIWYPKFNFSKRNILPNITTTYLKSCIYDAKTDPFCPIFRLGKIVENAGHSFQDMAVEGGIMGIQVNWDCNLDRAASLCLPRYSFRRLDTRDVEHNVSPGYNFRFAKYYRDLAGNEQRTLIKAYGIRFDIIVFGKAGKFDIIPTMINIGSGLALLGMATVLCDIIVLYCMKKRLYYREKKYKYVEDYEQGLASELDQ
UniProt O95747, whole entry, looked up: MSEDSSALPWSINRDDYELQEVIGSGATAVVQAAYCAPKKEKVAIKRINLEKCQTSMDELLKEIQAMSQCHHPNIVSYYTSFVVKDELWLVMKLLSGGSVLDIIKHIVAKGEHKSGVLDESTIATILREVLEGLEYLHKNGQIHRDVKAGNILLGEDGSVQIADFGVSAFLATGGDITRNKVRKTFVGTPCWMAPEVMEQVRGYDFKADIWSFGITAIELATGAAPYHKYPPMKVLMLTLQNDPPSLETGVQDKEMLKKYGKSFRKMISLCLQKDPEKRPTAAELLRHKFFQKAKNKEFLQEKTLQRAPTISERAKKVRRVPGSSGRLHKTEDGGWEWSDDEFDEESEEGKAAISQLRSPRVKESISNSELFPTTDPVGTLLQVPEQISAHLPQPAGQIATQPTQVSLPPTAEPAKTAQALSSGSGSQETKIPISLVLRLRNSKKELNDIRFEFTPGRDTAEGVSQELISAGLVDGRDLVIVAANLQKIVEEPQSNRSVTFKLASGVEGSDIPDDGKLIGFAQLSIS
UniProt O60890: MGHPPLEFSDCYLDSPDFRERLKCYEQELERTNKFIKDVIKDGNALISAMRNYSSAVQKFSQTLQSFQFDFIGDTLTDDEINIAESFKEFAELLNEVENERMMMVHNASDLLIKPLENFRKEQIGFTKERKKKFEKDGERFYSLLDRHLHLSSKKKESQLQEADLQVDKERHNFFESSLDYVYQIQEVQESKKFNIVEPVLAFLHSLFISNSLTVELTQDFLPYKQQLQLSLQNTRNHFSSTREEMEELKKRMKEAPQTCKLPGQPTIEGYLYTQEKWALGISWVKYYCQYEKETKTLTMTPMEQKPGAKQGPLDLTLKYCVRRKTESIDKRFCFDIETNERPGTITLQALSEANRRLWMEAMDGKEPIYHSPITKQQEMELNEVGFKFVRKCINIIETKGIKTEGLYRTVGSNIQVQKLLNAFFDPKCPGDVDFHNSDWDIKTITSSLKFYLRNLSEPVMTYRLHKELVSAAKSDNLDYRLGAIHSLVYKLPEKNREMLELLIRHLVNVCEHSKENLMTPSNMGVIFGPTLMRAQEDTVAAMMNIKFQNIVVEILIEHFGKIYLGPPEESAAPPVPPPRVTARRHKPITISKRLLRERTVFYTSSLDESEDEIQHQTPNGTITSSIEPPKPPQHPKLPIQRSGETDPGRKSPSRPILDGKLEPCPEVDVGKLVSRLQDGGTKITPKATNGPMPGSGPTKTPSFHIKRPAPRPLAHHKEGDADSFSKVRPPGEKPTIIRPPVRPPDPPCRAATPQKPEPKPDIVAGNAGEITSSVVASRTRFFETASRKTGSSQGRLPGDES
UniProt Q9BZF1: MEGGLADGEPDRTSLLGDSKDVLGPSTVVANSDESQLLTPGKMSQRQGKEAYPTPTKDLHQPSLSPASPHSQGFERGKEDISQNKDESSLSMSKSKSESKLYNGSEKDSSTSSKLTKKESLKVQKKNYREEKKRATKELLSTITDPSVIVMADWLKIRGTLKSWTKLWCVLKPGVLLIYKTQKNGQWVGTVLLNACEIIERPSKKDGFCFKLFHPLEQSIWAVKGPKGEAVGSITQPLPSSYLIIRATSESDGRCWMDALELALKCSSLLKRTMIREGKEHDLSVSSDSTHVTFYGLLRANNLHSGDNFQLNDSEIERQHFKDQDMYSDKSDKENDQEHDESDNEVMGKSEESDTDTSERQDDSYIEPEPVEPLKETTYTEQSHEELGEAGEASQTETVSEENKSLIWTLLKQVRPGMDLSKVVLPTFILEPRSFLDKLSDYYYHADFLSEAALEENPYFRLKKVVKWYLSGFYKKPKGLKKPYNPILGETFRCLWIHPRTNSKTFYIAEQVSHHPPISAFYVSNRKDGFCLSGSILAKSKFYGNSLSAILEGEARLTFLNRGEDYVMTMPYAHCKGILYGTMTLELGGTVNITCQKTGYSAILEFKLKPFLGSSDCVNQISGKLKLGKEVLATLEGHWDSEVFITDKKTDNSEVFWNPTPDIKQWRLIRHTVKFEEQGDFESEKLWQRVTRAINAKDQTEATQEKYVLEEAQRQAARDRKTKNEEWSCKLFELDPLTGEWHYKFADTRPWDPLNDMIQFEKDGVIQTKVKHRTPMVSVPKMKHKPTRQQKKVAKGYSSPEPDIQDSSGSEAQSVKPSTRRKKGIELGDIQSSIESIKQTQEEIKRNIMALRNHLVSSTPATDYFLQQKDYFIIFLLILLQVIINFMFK
UniProt P22059, whole entry, looked up: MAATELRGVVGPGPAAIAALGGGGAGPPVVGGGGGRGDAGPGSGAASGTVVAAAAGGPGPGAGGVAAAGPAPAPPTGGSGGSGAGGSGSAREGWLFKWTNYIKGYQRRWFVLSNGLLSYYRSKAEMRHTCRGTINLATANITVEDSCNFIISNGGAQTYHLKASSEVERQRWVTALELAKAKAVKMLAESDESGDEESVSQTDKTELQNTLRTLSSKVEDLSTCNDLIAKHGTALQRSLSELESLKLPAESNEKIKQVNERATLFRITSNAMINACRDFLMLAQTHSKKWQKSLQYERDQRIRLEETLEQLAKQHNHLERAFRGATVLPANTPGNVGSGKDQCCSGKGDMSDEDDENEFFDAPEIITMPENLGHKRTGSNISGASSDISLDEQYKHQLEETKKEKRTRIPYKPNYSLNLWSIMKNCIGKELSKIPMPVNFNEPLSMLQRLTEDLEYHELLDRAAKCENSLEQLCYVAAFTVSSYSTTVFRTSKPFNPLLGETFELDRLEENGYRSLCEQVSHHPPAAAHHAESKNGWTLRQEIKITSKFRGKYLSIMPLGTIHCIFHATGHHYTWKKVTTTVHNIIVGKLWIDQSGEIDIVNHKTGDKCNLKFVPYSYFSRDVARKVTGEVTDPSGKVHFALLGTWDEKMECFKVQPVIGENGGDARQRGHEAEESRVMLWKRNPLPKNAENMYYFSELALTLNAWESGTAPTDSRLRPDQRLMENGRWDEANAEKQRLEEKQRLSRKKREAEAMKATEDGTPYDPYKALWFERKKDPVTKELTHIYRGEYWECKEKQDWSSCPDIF
UniProt O15460: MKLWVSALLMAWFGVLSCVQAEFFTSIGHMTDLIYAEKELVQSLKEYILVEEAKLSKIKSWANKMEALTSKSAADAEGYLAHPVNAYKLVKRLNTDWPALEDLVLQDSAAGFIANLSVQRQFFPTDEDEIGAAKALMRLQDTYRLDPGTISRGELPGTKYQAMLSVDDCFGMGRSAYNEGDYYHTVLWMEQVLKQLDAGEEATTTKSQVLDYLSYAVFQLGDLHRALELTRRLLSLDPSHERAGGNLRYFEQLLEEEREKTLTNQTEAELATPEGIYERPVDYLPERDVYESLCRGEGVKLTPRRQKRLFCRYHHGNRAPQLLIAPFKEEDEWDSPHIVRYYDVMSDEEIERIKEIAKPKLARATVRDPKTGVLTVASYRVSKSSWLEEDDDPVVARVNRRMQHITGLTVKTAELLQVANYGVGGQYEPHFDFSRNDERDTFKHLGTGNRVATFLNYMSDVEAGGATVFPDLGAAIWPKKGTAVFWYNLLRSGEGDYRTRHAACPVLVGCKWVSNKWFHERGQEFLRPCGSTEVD
UniProt O43809, whole entry, looked up: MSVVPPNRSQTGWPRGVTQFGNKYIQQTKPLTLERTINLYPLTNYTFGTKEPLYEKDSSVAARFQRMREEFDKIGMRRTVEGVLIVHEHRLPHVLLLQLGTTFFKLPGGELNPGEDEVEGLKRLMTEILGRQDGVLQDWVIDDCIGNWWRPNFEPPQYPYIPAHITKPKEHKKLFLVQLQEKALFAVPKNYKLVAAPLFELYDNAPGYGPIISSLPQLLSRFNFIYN
UniProt Q5TFE4: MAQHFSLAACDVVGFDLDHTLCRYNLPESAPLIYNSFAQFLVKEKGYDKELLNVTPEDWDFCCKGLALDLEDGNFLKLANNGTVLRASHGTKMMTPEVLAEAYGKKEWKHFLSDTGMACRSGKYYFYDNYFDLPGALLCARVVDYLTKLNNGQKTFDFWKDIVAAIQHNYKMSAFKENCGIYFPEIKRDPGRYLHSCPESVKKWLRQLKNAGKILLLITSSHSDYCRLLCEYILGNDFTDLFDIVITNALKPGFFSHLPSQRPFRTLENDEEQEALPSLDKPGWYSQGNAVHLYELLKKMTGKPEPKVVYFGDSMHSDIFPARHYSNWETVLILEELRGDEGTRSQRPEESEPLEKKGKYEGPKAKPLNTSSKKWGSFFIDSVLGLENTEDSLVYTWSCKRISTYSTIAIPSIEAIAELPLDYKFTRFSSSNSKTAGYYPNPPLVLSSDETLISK
UniProt Q9ULJ1: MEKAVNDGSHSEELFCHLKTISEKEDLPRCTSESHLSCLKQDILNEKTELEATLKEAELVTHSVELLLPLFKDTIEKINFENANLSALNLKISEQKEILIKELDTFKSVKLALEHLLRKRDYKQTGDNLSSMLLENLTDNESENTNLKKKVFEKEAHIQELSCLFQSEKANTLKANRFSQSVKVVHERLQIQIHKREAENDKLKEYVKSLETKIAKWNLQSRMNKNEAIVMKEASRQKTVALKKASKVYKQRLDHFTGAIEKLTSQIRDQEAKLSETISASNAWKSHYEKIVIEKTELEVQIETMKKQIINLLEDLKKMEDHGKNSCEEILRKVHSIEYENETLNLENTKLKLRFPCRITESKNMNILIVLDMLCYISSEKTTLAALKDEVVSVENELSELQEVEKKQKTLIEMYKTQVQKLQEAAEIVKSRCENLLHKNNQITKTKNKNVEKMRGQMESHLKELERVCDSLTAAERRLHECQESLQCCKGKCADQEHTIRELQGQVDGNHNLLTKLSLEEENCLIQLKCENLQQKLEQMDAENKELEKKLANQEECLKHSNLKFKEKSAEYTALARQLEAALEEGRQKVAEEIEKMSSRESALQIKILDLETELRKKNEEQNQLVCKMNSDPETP
UniProt P0C025: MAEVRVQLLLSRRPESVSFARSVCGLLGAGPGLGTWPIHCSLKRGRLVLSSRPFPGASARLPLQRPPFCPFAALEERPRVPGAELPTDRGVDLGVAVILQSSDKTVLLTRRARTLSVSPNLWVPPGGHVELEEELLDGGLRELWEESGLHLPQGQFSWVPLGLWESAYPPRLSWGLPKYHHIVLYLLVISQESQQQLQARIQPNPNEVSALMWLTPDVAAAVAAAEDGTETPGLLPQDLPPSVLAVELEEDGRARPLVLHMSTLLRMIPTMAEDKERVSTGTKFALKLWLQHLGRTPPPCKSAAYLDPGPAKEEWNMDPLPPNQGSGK
UniProt Q9BRQ3: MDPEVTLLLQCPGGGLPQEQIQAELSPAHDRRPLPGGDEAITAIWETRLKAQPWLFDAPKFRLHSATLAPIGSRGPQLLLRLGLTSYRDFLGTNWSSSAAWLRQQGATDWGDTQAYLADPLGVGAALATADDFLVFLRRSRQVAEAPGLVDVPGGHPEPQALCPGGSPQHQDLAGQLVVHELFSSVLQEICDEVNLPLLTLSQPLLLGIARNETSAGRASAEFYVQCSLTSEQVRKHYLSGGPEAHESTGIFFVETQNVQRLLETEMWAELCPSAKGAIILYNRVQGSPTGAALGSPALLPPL
UniProt Q6N063: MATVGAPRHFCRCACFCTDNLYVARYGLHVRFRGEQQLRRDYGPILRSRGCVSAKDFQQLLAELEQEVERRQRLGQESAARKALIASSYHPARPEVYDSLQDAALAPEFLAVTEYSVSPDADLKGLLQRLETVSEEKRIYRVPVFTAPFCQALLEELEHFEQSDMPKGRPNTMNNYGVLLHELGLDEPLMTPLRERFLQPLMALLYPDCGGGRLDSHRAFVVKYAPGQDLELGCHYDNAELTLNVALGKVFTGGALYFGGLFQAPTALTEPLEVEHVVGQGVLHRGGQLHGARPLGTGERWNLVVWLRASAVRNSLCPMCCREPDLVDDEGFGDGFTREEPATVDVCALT

Experiments:
Assay in all cases: log2 fold change, soluble protein after heating vs DMSO (PISA); higher = thermal stabilisation; K562 cells, 10 uM, 30 min; active = over 0.2 and 3.5 SD of the protein, either way, in both replicates (recomputed)
[1] = compound: COC1=CC=C(C=C1)CN2C=CC3=C2C=C(C=C3)C(=O)NO
Procedure, shortened: (§1)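 Soluble protein was quantified by TMTpro 16plex LC-MS/MS after channel sums were equalised. It was obtained as the supernatant after 21,000xg for 90 min from pooled aliquots of K562 cells (2×10^6 cells/mL, 10 μM compound, 30 min) heated for 3 min across 48°C-58°C and extracted in PBS with 0.5% NP-40 at 4°C. Thermal stability values are relative to control samples and come from duplicates. They are given as log2 fold changes.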

filanesib = compound: CON(C)C(=O)N1N=C(c2cc(F)ccc2F)S[C@@]1(CCCN)c1ccccc1 [filanesib]
Procedure, shortened: as §1

zotarolimus = compound: CO[C@H]1C[C@@H]2CC[C@@H](C)[C@@](O)(O2)C(=O)C(=O)N2CCCC[C@H]2C(=O)O[C@H]([C@H](C)C[C@@H]2CC[C@H](n3cnnn3)[C@H](OC)C2)CC(=O)[C@H](C)/C=C(\C)[C@@H](O)[C@@H](OC)C(=O)[C@H](C)C[C@H](C)/C=C/C=C/C=C/1C [zotarolimus]
Procedure, shortened: as §1

idasanutlin = compound: COc1cc(C(=O)O)ccc1NC(=O)[C@@H]1N[C@@H](CC(C)(C)C)[C@](C#N)(c2ccc(Cl)cc2F)[C@H]1c1cccc(Cl)c1F [idasanutlin]
Procedure, shortened: as §1

alisertib = compound: COc1cc(Nc2ncc3c(n2)-c2ccc(Cl)cc2C(c2c(F)cccc2OC)=NC3)ccc1C(=O)O [alisertib]
Procedure, shortened: as §1

[2] = compound: COc1cc2nc(-c3cc(F)ccc3O)nc(N[C@@H]3CNC[C@H]3C(C)(C)O)c2cc1OC
Procedure, shortened: as §1

gefitinib = compound: COc1cc2ncnc(Nc3ccc(F)c(Cl)c3)c2cc1OCCCN1CCOCC1 [gefitinib]
Procedure, shortened: as §1

[3] = compound: COc1cccc2cc(-c3nc([C@H]4CC[C@H](C(=O)O)CC4)n4ncnc(N)c34)[nH]c12
Procedure, shortened: as §1

lapatinib = compound: CS(=O)(=O)CCNCc1ccc(-c2ccc3ncnc(Nc4ccc(OCc5cccc(F)c5)c(Cl)c4)c3c2)o1 [lapatinib]
Procedure, shortened: as §1

pictilisib = compound: CS(=O)(=O)N1CCN(Cc2cc3nc(-c4cccc5[nH]ncc45)nc(N4CCOCC4)c3s2)CC1 [pictilisib]
Procedure, shortened: as §1

[4] = compound: CS(=O)(=O)c1ccc(-c2cnc(N)c(C(=O)Nc3ccccc3)n2)cc1
Procedure, shortened: as §1

crizotinib = compound: C[C@@H](Oc1cc(-c2cnn(C3CCNCC3)c2)cnc1N)c1c(Cl)ccc(F)c1Cl [crizotinib]
Procedure, shortened: as §1

[5] = compound: C[C@@H]1COCCN1C2=NC(=NC(=C2)C3(CC3)S(=O)(=O)C)C4=C5C=CNC5=CC=C4
Procedure, shortened: as §1

[6] = compound: C[C@H](C1=CC=C(C=C1)C(=O)NC2=C3C=CNC3=NC=C2)N
Procedure, shortened: as §1

gandotinib = compound: Cc1cc(Nc2cc(CN3CCOCC3)c3nc(C)c(Cc4ccc(Cl)cc4F)n3n2)n[nH]1 [gandotinib]
Procedure, shortened: as §1

[7] = compound: Cc1cc(SCc2sc(-c3ccc(C(F)(F)F)cc3)nc2C)ccc1OCC(=O)O
Procedure, shortened: as §1

doramapimod = compound: Cc1ccc(-n2nc(C(C)(C)C)cc2NC(=O)Nc2ccc(OCCN3CCOCC3)c3ccccc23)cc1 [doramapimod]
Procedure, shortened: as §1

ispinesib = compound: Cc1ccc(C(=O)N(CCCN)[C@@H](c2nc3cc(Cl)ccc3c(=O)n2Cc2ccccc2)C(C)C)cc1 [ispinesib]
Procedure, shortened: as §1

duvelisib = compound: C[C@H](Nc1ncnc2nc[nH]c12)c1cc2cccc(Cl)c2c(=O)n1-c1ccccc1 [duvelisib]
Procedure, shortened: as §1

tozasertib = compound: Cc1cc(Nc2cc(N3CCN(C)CC3)nc(Sc3ccc(NC(=O)C4CC4)cc3)n2)n[nH]1 [tozasertib]
Procedure, shortened: as §1

Measured: log2 fold change

OSTM1 (UniProt Q86WC4)
active: ispinesib -0.308
inactive: [1] -0.012 | filanesib -0.122 | zotarolimus 0.007 | idasanutlin 0.002 | alisertib -0.015 | [2] -0.09 | gefitinib -0.066 | [3] 0.002 | lapatinib 0.056 | pictilisib 0.055 | [4] -0.014 | crizotinib -0.244 | [5] 0.028 | [6] -0.021 | gandotinib -0.225 | [7] -0.033 | doramapimod 0.041

P2RX4 isoform 2 (UniProt Q99571)
inactive: [1] 0.092 | filanesib 0.066 | zotarolimus -0.044 | idasanutlin -0.087 | alisertib 0.038 | [2] -0.081 | gefitinib -0.095 | [3] 0.102 | lapatinib 0.091 | [4] -0.027 | crizotinib -0.217 | [5] 0.008 | [6] 0 | duvelisib 0.242 | tozasertib -0.106 | [7] 0.033 | doramapimod 0.043 | ispinesib -0.125

OXSR1 (UniProt O95747)
inactive: [1] 0.014 | filanesib -0.009 | zotarolimus -0.007 | idasanutlin -0.068 | alisertib -0.073 | [2] 0.018 | gefitinib -0.007 | [3] 0.034 | lapatinib -0.033 | pictilisib 0.028 | [4] 0.031 | crizotinib -0.127 | [5] 0.021 | [6] 0.011 | gandotinib -0.096 | [7] 0.095 | doramapimod 0.011 | ispinesib -0.055

NUDT2 (UniProt P50583)
inactive: [1] 0.052 | filanesib -0.09 | zotarolimus 0.038 | idasanutlin -0.106 | alisertib 0.012 | [2] 0.171 | gefitinib 0.062 | [3] -0.019 | lapatinib -0.037 | [4] -0.01 | crizotinib -0.161 | [5] -0.039 | [6] 0.094 | duvelisib 0.075 | tozasertib -0.044 | [7] 0.061 | doramapimod 0.027 | ispinesib -0.07

OPHN1 (UniProt O60890)
active: gandotinib -0.636
inactive: [1] -0.261 | filanesib -0.004 | zotarolimus -0.049 | idasanutlin -0.015 | alisertib -0.036 | gefitinib -0.002 | [3] 0.04 | pictilisib 0.242 | [4] 0.011 | crizotinib -0.06 | [5] 0.107 | [6] 0.14 | [7] -0.21 | doramapimod 0.26 | ispinesib 0.018

OSBPL8 (UniProt Q9BZF1)
inactive: [1] 0.034 | filanesib 0.077 | zotarolimus -0.067 | idasanutlin -0.016 | alisertib -0.052 | [2] -0.086 | gefitinib 0.23 | [3] -0.22 | lapatinib 0.142 | pictilisib -0.015 | [4] 0.019 | crizotinib -0.179 | [5] -0.043 | [6] 0.219 | gandotinib -0.105 | [7] 0.103 | doramapimod 0.078 | ispinesib -0.433

OSBP (UniProt P22059)
active: ispinesib 0.216
inactive: [1] -0.018 | filanesib 0.009 | zotarolimus 0.007 | idasanutlin -0.019 | alisertib -0.046 | [2] 0.086 | gefitinib 0.019 | [3] -0.009 | lapatinib 0 | pictilisib 0.004 | [4] -0.015 | crizotinib 0.057 | [5] 0.025 | [6] -0.043 | gandotinib -0.025 | [7] 0.016 | doramapimod -0.028

P4HA2 (UniProt O15460)
inactive: [1] -0.109 | filanesib 0.078 | zotarolimus 0.026 | alisertib 0.011 | [2] -0.139 | gefitinib 0.006 | [3] -0.11 | lapatinib 0.075 | pictilisib -0.003 | [4] 0.079 | crizotinib 0.023 | [6] 0.178 | gandotinib 0.021 | [7] 0.053 | doramapimod 0.069 | ispinesib -0.088
active: [5] -0.627

OARD1 (UniProt Q9Y530)
inactive: [1] 0.074 | filanesib 0.077 | zotarolimus -0.032 | idasanutlin -0.047 | alisertib -0.078 | [2] 0.098 | gefitinib 0.041 | [3] -0.123 | lapatinib 0.001 | [4] 0.025 | crizotinib 0.022 | [5] 0.007 | [6] 0.061 | duvelisib -0.002 | tozasertib 0.014 | [7] 0.021 | doramapimod 0.049 | ispinesib 0.034

OBSCN (UniProt A6NGQ3)
inactive: [1] -0.267 | filanesib 0.076 | zotarolimus -0.204 | idasanutlin 0.024 | [2] 0.047 | gefitinib 0.059 | lapatinib -0.09 | [4] 0.147 | crizotinib 0.078 | [6] 0.192 | tozasertib -0.085 | doramapimod 0.093 | ispinesib -0.179

NUDT8 (UniProt Q8WV74)
inactive: [1] 0.011 | filanesib -0.21 | zotarolimus -0.008 | alisertib 0.12 | [2] 0.017 | gefitinib 0.013 | [3] 0.02 | lapatinib -0.037 | [4] 0.072 | crizotinib 0.061 | [6] -0.069 | duvelisib -0.203 | tozasertib -0.289 | [7] 0.028 | doramapimod -0.029 | ispinesib -0.076

NUDT21 (UniProt O43809)
active: [6] -0.209
inactive: [1] -0.003 | filanesib 0.027 | zotarolimus 0.013 | idasanutlin 0.006 | alisertib -0.077 | [2] 0.102 | gefitinib -0.019 | [3] 0.031 | lapatinib -0.019 | pictilisib 0.017 | [4] -0.054 | crizotinib 0.039 | [5] -0.031 | gandotinib -0.059 | [7] 0.039 | doramapimod 0.007 | ispinesib 0.116

NUDT5 (UniProt C9JYY9)
inactive: [1] -0.224 | filanesib 0.033 | zotarolimus -0.004 | idasanutlin 0.079 | pictilisib 0.31 | [4] 0.043 | crizotinib -0.013 | [5] -0.071 | [6] 0.225 | duvelisib -0.01 | gandotinib 0.046 | tozasertib 0.001 | [7] -0.057 | doramapimod -0.138

NT5DC1 (UniProt Q5TFE4)
inactive: [1] 0.016 | filanesib -0.067 | zotarolimus 0.019 | idasanutlin -0.122 | alisertib -0.015 | [2] 0.04 | gefitinib 0.018 | [3] 0.02 | lapatinib 0.074 | pictilisib 0.097 | [4] 0.045 | crizotinib 0.071 | [5] 0.046 | [6] -0.052 | gandotinib 0.019 | [7] -0.038 | doramapimod -0.018 | ispinesib 0.037

NSMCE1 (UniProt Q8WV22)
inactive: [1] -0.019 | filanesib -0.003 | zotarolimus 0.001 | idasanutlin -0.121 | alisertib -0.059 | [2] 0.125 | gefitinib 0.465 | [3] 0.074 | lapatinib -0.023 | [4] -0.008 | crizotinib 0.054 | [5] -0.115 | [6] 0.074 | duvelisib 0.127 | tozasertib -0.006 | [7] -0.153 | doramapimod 0.006 | ispinesib -0.072

NUDT14 (UniProt O95848)
inactive: [2] -0.004 | lapatinib -0.104

ODF2L isoform 4 (UniProt Q9ULJ1)
inactive: [1] -0.119 | alisertib -0.055 | gefitinib -0.023 | [3] -0.073 | crizotinib 0.242 | doramapimod -0.045

OPRPN (UniProt Q99935)
inactive: alisertib -0.21 | [3] 0.119

OSBPL2 (UniProt Q9H1P3)
active: lapatinib 1.57
inactive: zotarolimus 0.085 | alisertib -0.019 | [2] -0.187 | [3] -0.042 | [6] 0.124

Retrieved one by one from the entries so far (2):
OPRPN (UniProt Q99935)
inactive: alisertib -0.21 | [3] 0.119

ODF2L isoform 4 (UniProt Q9ULJ1)
inactive: [1] -0.119 | alisertib -0.055 | gefitinib -0.023 | [3] -0.073 | crizotinib 0.242 | doramapimod -0.045

Additional entries.

NVL (UniProt O15381)
inactive: alisertib -0.059 | [3] -0.007 | pictilisib 0.053 | gandotinib 0.259 | ispinesib -0.101

NUDT17 (UniProt P0C025)
inactive: filanesib -0.175 | zotarolimus 0.153 | idasanutlin -0.113 | alisertib 0.028 | gefitinib 0.025 | [3] -0.037 | [4] -0.434 | [5] -0.016 | [6] -0.327 | tozasertib 0.131 | ispinesib 0.125

P3H3 (UniProt Q8IVL6)
inactive: alisertib -0.107 | [3] -0.044 | [5] -0.164 | tozasertib -0.361

NUDT22 (UniProt Q9BRQ3)
inactive: idasanutlin 0.19 | alisertib -0.241 | [3] 0.105 | duvelisib -0.05 | [7] 0.186

OGFOD2 (UniProt Q6N063)
inactive: [1] -0.275 | zotarolimus 0.034 | idasanutlin 0.073 | alisertib 0.007 | gefitinib 0.071 | [3] -0.033 | pictilisib -0.144 | crizotinib 0.04 | [5] 0.042 | [6] -0.058 | gandotinib 0.278 | [7] 0.034 | doramapimod 0.042 | ispinesib -0.032
